For 42 sequences, binding signal results are on record in paper PMC7819943, “Rice protein-binding microarrays: a tool to detect cis-acting elements near promoter regions in rice”.

Amino acid sequences for entries named in this document (tags omitted).
UniProt Q0JBA9, entry or part of it: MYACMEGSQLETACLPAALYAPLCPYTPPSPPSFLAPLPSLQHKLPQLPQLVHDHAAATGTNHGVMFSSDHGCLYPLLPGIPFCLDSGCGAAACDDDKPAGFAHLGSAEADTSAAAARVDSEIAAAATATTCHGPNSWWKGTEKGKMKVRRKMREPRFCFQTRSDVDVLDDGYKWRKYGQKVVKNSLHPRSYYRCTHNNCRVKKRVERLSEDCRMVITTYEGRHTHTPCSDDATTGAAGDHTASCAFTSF

The other results are listed elsewhere or left out.

This assay addresses OsWRKY34 (Oryza sativa, UniProt Q0JBA9 1-250). Briefly: protein-binding microarray (RPBM); PBS, 2% BSA, 51.3 ng/ul salmon testes DNA, 50 uM zinc acetate, 200 nM TF, 25 C, 1 h; high values mean tight binding. The note with it: protein: recombinant; tags: N-terminal polyhistidine and DsRed monomer fusion (pET32a); label: CyDye5-dUTP incorporated in the synthesized complementary strand; 3' TTTTT single-stranded linker to array surface; dsDNA, one strand shown. The method in brief: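 A custom Agilent array was converted to double-stranded form by primer extension with Cy5-dUTP and blocked with 2% BSA. Protein at 200 nM in PBS with 2% BSA, salmon testes DNA and 50 µM zinc acetate was applied for 1 h at 25 °C, followed by washing. The proteins were polyhistidine–DsRed N-terminal fusions of transcription factors, expressed in E. coli BL21-CodonPlus and Ni–NTA-purified. The binding signal is per-feature fluorescence intensity (arbitrary units) from an Axon 4000B scanner.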
Turning to “CCACCTATCATACTCTTCTTCCCTATTCCTCTCTCTCTTCCGGAGTCACCTAGTGCAG”, the binding signal is 8600 fluorescence intensity (a.u.). On to “ATGTTGTTCTCTTAATTTTATTTTACACTATCACACCATTCGGAGTCACCTAGTGCAG”, for which the binding signal is 9440 fluorescence intensity (a.u.). For “CTGACACTGACACTAAGTTCAGTCTTGTACGTTATTTGCACGGAGTCACCTAGTGCAG”, the binding signal is 8450 fluorescence intensity (a.u.). With “GTCCCCTTTCCTCTCGCCGCCGACCTCGTCGGCCGTCTCCCGGAGTCACCTAGTGCAG”, the binding signal was 8330 fluorescence intensity (a.u.). “CCGGTTTATGTCTTTGTTGCAAACCACATCACCACGAGTTCGGAGTCACCTAGTGCAG”: the binding signal is 10900 fluorescence intensity (a.u.). For the sequence “TATATGTATTCTGACTAATTAGTGTTATTTTTGTTGATCACGGAGTCACCTAGTGCAG”, the binding signal is 8930 fluorescence intensity (a.u.).

“AGGGTTTTTTTTGTCACTTTCGTTGTCAGTTTCTTTTTTCCGGAGTCACCTAGTGCAG”: the binding signal was 14100 fluorescence intensity (a.u.). In the case of “GCCACCAATAACACATCGCCACCTCGCAGTCGCATCGTCACGGAGTCACCTAGTGCAG” it was 9520 fluorescence intensity (a.u.); in that of “TTTGCCCGATTTTTGATTTTTGTTTTTTTTGGGTTCTTGGCGGAGTCACCTAGTGCAG”, 9680 fluorescence intensity (a.u.).

“CGCTGGTTCGGCTCCTTCGCTCGGCTCGGCTCCGCCACCGCGGAGTCACCTAGTGCAG”: the binding signal is 8970 fluorescence intensity (a.u.). In the case of “GTTCTCTTAATTAACTTGGGTTAAAATTTTTATCTCTCTCCGGAGTCACCTAGTGCAG” it was 8160 fluorescence intensity (a.u.); in that of “TTCGGTTGCACGCTCGCTTGTCTGGTTGTTGATCGATCGACGGAGTCACCTAGTGCAG”, 11100 fluorescence intensity (a.u.). In the case of “GCATATTTGTTTCTTTGTGTTCCCTTGTCGAGAGCTTGTCCGGAGTCACCTAGTGCAG” it was 8970 fluorescence intensity (a.u.); in that of “ATCTTCGCGCATCCCCACATCGCCGCGCCCGCTCCACTCTCGGAGTCACCTAGTGCAG”, 9760 fluorescence intensity (a.u.). As for “GTCACCATGTGAACACGTATGCTTCTCTTCATTCATTCTTCGGAGTCACCTAGTGCAG”, the binding signal is 9200 fluorescence intensity (a.u.).

With “GACTCTTTGTCTCTTCGGGTCTTCTTTTACCTACATTGTCCGGAGTCACCTAGTGCAG”, the binding signal is 11300 fluorescence intensity (a.u.).

In the case of “TTCCTCCACAACATCCTCATCCGCGCCTCCGCCTCCTCCGCGGAGTCACCTAGTGCAG”, the binding signal was 9350 fluorescence intensity (a.u.).

As for “CTCCATTCCGTTCCCTATTCTTCGAAAGGTGCCGATACCCCGGAGTCACCTAGTGCAG”, the binding signal was 11400 fluorescence intensity (a.u.).

“GTGCGCCGCCACCGCCCGCCCCACCGCCGCCGCCGCCCACCGGAGTCACCTAGTGCAG”: the binding signal is 11000 fluorescence intensity (a.u.). In the case of “AAATTCCAAGCCAAGGCCCTCGTCTCGTCTCGCACTCTCGCGGAGTCACCTAGTGCAG” it was 9050 fluorescence intensity (a.u.); in that of “GTACACATGTTTCAGATGGATATATCATGCACACTGACTACGGAGTCACCTAGTGCAG”, 9090 fluorescence intensity (a.u.); in that of “TTGACGTGTAAGGAGCTGTAATTTGTTGTCATCATAATTGCGGAGTCACCTAGTGCAG”, 8490 fluorescence intensity (a.u.). In the case of “ATCCTACCACAATCCTCATCGCCGTTTGATCGTCAGACCACGGAGTCACCTAGTGCAG” it was 9620 fluorescence intensity (a.u.). On to “GACTTATATTTACAATATCTTATTAAACATTGCTTGTGTTCGGAGTCACCTAGTGCAG”, for which the binding signal was 8560 fluorescence intensity (a.u.). In the case of “AGAAAAGCTCTACATGCATGTCTATTCCAGTGATTTCTGACGGAGTCACCTAGTGCAG” it was 8320 fluorescence intensity (a.u.); in that of “GATTAACTCACAGTTGTACCCTCATTTTTGTTTGGCTGATCGGAGTCACCTAGTGCAG”, 9730 fluorescence intensity (a.u.). In the case of “AATTTCCACCCTCTGAACTTTCAGCATTGTTCTTGTATTCCGGAGTCACCTAGTGCAG” it was 8810 fluorescence intensity (a.u.); in that of “GGTGGGGCCGGGGCGGCAGTGAGTACAAAAGCAAAAGGGTCGGAGTCACCTAGTGCAG”, 8620 fluorescence intensity (a.u.); in that of “ATCATCTATAAAAATCACTTGTCTCGCTGTTAAATAGTCACGGAGTCACCTAGTGCAG”, 8070 fluorescence intensity (a.u.). In the case of “CAGTAAGTTGTTTTCTAGTAGCATCAATGTTAAAATTCCTCGGAGTCACCTAGTGCAG”, the binding signal is 8520 fluorescence intensity (a.u.). In the case of “GCACGTGAGATCCTCACCCGCGCTCCCCAACGGCTATATTCGGAGTCACCTAGTGCAG” it was 9300 fluorescence intensity (a.u.). For the sequence “GCCATTCACCATACGGTAAGCGCCTGCGCCGCCGCTTCTTCGGAGTCACCTAGTGCAG”, the binding signal is 9870 fluorescence intensity (a.u.). In the case of “CCTCGTTAACTGCAACCCATCGATTGCCACATCTACACCTCGGAGTCACCTAGTGCAG” it was 10300 fluorescence intensity (a.u.); in that of “CTCGCTCGCCAATTCGCCATGATCGGGTGGGGCTCCGCTACGGAGTCACCTAGTGCAG”, 10000 fluorescence intensity (a.u.).

For the sequence “ACTGGTTGTGCTCTTTAATTATCACTTTATGCGCACTTTTCGGAGTCACCTAGTGCAG”, the binding signal is 8270 fluorescence intensity (a.u.). In the case of “AGCAACCTTTTGTCAGATCCTCCGCCACCAAGCTCATGCCCGGAGTCACCTAGTGCAG” it was 9420 fluorescence intensity (a.u.).

Regarding “TGTAGTGATGGGAGCGCGTGGAGTGGAATTGACTAGTACTCGGAGTCACCTAGTGCAG”, the binding signal is 8100 fluorescence intensity (a.u.). In the case of “ACCTGCCGCCGCTGCCGCATCCGCCGCCACCACGACCAACCGGAGTCACCTAGTGCAG” it was 8620 fluorescence intensity (a.u.). In the case of “AGCTTCAGATTGGCAAGTTCAACATGTGTTTTTAGTTAGTCGGAGTCACCTAGTGCAG” it was 8530 fluorescence intensity (a.u.); in that of “TCTGCTTGCTTGCCTGCCACTGTGCCACTGCCGACCAATCCGGAGTCACCTAGTGCAG”, 8740 fluorescence intensity (a.u.). As for “GCTACCACACGCCACCTCTCCTCGCCATTCGCTGCGCTCGCGGAGTCACCTAGTGCAG”, the binding signal was 9390 fluorescence intensity (a.u.).

As to “ATCTCGGTCTCTCACAAGACACACAGCTAATTAGCTCTATCGGAGTCACCTAGTGCAG”, the binding signal was 8470 fluorescence intensity (a.u.).
